# According to the supplement of paper PMC12823440, “Inhibitors supercharge kinase turnover through native proteolytic circuits” (Nature, 2025):
# Sequences of proteins named here, by UniProt entry; tags and fusion partners are left off. A change or cut given only in a name is not applied to a line headed by its entry.
# UniProt P07949, whole entry, looked up: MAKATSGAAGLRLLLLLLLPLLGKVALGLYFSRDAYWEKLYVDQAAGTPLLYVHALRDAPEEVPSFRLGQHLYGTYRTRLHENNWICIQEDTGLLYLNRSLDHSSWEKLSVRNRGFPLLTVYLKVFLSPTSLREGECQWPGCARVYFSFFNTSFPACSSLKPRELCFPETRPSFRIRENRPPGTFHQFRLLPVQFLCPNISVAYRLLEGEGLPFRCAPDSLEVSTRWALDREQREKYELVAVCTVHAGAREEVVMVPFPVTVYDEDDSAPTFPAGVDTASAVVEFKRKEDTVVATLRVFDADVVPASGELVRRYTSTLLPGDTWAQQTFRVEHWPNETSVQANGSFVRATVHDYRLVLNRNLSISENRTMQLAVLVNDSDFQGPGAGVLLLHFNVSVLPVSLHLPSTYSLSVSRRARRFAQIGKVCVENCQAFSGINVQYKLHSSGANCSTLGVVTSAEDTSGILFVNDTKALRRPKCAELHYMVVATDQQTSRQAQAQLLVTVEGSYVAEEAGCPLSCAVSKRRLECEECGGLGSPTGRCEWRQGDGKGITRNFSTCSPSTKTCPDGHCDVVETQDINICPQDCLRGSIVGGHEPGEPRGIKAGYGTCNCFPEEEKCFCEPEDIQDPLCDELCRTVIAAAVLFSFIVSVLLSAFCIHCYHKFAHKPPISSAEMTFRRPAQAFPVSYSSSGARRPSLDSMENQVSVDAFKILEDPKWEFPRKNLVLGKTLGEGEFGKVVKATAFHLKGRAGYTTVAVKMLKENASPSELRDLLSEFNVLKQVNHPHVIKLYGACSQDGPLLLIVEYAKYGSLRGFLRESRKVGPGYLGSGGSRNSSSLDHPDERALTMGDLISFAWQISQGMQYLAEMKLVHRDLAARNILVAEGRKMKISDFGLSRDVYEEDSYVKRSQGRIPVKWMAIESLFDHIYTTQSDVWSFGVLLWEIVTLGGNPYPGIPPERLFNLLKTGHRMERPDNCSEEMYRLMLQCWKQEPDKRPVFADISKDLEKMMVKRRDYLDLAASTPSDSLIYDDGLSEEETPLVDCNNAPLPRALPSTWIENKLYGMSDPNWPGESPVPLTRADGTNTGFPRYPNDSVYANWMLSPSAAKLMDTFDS
# UniProt P07949, whole entry M918T, looked up: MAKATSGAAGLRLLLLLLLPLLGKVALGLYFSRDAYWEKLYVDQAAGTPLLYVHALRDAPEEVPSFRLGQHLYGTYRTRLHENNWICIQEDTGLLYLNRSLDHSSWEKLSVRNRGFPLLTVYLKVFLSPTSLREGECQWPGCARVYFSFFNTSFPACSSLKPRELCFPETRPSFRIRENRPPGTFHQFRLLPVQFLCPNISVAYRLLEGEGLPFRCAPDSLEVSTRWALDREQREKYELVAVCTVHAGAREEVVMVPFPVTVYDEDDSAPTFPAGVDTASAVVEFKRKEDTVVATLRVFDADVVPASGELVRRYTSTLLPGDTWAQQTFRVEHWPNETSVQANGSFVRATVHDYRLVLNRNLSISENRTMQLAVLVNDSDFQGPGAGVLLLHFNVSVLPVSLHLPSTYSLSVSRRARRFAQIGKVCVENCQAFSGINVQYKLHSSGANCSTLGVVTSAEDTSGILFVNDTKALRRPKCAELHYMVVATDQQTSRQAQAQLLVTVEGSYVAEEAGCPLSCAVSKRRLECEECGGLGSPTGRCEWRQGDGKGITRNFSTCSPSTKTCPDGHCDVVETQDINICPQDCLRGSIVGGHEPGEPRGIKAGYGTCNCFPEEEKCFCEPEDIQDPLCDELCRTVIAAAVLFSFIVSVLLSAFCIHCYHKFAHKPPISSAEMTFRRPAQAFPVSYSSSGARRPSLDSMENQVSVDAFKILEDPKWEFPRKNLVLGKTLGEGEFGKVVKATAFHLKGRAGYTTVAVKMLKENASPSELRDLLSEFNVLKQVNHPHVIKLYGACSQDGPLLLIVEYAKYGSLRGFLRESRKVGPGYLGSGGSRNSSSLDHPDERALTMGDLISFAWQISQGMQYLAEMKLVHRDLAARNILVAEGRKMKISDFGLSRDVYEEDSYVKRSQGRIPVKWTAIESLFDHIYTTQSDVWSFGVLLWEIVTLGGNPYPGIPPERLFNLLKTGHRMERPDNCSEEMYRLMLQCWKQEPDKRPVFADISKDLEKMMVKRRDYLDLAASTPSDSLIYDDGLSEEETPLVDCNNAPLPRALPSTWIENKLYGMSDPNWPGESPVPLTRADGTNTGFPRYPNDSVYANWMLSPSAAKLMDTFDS
# UniProt Q9BRS2: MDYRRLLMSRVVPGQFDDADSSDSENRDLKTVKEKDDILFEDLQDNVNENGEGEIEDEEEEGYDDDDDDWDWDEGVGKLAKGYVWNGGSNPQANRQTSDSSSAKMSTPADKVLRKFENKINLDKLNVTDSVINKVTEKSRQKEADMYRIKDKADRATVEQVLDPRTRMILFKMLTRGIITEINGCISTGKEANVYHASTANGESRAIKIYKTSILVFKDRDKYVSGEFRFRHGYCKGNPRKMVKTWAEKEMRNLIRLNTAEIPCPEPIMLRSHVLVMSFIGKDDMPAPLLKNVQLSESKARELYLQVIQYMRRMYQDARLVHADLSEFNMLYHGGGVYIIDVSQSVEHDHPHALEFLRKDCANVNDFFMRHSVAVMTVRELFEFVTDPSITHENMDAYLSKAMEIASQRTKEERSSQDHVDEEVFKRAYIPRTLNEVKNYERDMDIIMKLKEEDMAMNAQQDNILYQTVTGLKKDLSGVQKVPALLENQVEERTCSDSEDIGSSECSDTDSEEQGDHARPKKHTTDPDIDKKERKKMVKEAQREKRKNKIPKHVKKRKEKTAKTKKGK
# UniProt Q13546: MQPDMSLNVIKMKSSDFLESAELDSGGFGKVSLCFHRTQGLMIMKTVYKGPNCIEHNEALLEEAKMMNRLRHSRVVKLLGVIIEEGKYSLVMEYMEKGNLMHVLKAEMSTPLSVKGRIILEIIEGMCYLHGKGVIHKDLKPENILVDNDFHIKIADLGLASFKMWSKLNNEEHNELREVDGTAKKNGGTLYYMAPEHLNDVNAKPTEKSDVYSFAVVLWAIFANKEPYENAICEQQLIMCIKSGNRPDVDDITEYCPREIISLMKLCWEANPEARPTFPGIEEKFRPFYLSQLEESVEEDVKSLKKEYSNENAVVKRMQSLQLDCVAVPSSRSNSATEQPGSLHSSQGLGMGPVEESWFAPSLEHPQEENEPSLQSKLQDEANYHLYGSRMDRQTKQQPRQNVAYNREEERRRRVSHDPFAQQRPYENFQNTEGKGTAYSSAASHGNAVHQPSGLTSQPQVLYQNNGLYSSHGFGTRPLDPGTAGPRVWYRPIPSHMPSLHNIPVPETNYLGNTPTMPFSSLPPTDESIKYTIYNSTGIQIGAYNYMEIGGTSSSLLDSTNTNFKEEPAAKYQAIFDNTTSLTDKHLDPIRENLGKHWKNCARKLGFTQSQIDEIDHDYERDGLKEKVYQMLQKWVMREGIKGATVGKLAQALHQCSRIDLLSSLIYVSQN
# UniProt Q01974, whole entry: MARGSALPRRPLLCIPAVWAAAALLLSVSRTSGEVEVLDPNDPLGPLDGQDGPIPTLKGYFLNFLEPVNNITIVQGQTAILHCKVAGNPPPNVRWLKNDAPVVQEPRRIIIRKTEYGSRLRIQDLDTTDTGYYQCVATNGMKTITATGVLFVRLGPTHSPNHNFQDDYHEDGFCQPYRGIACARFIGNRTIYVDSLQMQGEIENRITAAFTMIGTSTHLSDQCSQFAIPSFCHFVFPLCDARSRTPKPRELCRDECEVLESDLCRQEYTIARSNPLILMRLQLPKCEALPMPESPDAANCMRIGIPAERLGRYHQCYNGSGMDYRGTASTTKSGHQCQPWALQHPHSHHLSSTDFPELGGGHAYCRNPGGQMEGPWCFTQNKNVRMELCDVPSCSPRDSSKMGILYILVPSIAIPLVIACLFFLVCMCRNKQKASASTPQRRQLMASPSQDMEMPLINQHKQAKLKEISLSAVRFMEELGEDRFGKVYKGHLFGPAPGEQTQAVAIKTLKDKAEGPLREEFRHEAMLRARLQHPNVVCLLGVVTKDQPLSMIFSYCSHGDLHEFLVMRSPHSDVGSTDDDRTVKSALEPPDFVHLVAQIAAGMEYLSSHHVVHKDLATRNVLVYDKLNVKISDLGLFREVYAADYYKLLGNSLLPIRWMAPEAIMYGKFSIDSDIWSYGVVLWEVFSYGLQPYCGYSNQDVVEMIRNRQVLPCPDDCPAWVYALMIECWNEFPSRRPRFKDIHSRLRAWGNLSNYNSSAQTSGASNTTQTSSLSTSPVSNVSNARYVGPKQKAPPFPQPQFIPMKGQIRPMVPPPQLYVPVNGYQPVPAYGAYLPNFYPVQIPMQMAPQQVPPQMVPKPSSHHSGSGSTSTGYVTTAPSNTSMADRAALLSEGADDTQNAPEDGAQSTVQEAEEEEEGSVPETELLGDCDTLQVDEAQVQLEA
# UniProt Q15418, whole entry: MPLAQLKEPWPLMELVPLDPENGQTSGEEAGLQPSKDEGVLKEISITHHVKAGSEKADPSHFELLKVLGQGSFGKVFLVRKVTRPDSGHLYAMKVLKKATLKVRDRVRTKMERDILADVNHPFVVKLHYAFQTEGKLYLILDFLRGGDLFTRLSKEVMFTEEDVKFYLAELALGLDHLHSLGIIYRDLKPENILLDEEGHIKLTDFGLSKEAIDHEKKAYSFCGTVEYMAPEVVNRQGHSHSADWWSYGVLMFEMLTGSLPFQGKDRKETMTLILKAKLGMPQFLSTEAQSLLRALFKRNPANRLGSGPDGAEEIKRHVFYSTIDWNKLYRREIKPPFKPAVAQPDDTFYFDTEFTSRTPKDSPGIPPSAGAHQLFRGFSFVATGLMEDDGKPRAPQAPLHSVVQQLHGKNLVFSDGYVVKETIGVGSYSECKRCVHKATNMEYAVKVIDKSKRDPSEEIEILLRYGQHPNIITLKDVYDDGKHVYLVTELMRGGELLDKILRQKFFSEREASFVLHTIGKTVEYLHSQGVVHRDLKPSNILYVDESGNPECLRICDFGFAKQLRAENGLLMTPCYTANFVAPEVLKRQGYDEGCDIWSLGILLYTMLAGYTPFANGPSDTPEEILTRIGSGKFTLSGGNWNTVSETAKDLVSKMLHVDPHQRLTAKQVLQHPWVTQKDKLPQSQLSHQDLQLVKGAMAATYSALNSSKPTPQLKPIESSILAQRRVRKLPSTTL
# UniProt Q9NYA1, whole entry: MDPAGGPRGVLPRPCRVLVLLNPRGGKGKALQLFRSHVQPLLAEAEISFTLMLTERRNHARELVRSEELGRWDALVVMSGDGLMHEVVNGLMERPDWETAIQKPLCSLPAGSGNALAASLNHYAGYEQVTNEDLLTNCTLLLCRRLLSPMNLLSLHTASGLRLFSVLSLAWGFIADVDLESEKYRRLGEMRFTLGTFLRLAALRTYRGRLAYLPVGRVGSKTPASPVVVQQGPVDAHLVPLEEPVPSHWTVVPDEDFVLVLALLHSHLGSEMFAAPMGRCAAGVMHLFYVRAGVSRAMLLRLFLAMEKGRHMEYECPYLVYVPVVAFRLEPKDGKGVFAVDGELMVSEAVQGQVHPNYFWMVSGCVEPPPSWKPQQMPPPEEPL
# UniProt Q9Y6E0: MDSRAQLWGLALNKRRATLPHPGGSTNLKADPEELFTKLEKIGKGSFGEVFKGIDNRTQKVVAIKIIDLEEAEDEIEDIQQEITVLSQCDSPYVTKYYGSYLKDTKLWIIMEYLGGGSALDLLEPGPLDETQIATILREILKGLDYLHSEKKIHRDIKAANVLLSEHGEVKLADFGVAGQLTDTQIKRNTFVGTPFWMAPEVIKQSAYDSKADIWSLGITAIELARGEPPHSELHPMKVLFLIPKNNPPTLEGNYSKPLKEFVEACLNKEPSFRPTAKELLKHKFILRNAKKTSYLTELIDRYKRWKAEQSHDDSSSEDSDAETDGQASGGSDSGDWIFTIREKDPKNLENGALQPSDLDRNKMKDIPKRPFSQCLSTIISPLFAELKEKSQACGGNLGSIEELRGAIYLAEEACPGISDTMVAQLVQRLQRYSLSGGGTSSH
# Structures can show the parent of a compound that is named as a salt. The list shows a part of the results. Hit calls seldom repeat between salt and free forms of one compound.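 In K562 cells expressing nanoluciferase-fused kinases, luminescence was recorded at 4 h intervals between 2 and 18 h, normalized as percent of control with DMSO at 100% and a positive control at 0%. A significant (2 sigma) signal drop marks a time point as decreased. The authors' rule for a hit is not shown and takes in more than the number of time points.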
# How the values were obtained:
# Assay in all cases: kinase-Nluc reporter destabilization hit call (1 = scored as downregulated) (binary); higher = compound decreases kinase abundance
# Details in all cases: K562; 2-18 h
# RET = RET (UniProt P07949)
# [1] = target: RET_M918T (clone: RET_mut) (UniProt P07949)
# RIOK1 = RIOK1 (UniProt Q9BRS2)
# RIPK1 = RIPK1 (UniProt Q13546)
# RIPK2 = RIPK2 (UniProt O43353)
# ROR2 = ROR2 (UniProt Q01974)
# RPS6KA1 = RPS6KA1 (UniProt Q15418)
# SPHK1 = SPHK1 (UniProt Q9NYA1)
# SRC = SRC (UniProt P12931)
# STK24 = STK24 (UniProt Q9Y6E0)
SMILES,kinase-Nluc reporter destabilization hit call (RET),kinase-Nluc reporter destabilization hit call [1],kinase-Nluc reporter destabilization hit call (RIOK1),kinase-Nluc reporter destabilization hit call (RIPK1),kinase-Nluc reporter destabilization hit call (RIPK2),kinase-Nluc reporter destabilization hit call (ROR2),kinase-Nluc reporter destabilization hit call (RPS6KA1),kinase-Nluc reporter destabilization hit call (SPHK1),kinase-Nluc reporter destabilization hit call (SRC),kinase-Nluc reporter destabilization hit call (STK24)
CN(C)C(=O)c1cc2cnc(Nc3ccc(N4CCN(CCCCNC(=O)COc5cccc6c5C(=O)N(C5CCC(=O)NC5=O)C6=O)CC4)cn3)nc2n1C1CCCC1 (stereo not given) (10 µM),inactive: 0,inactive: 0,inactive: 0,inactive: 0,inactive: 0,inactive: 0,inactive: 0,inactive: 0,inactive: 0,inactive: 0
CO/N=C1/C(c2c(O)[nH]c3cc(Cl)c(Cl)cc23)=Nc2ccccc21 (10 µM),inactive: 0,inactive: 0,inactive: 0,inactive: 0,inactive: 0,inactive: 0,inactive: 0,inactive: 0,inactive: 0,inactive: 0
CCn1c(N)c(C(=O)NC)c(=O)c2ccc(C#CC(C)(O)COC)nc21 (stereo not given) (10 µM),inactive: 0,inactive: 0,inactive: 0,inactive: 0,inactive: 0,inactive: 0,inactive: 0,inactive: 0,inactive: 0,inactive: 0
Cc1nc(NC(=O)N2CCC[C@H]2C(N)=O)sc1-c1ccnc(C(C)(C)C(F)(F)F)c1 [Alpelisib] (2.5 µM),inactive: 0,inactive: 0,inactive: 0,inactive: 0,inactive: 0,inactive: 0,inactive: 0,inactive: 0,inactive: 0,inactive: 0
O=S(=O)(c1ccc(O)cc1O)N1Cc2cc(O)cc(O)c2C1 (10 µM),inactive: 0,inactive: 0,inactive: 0,inactive: 0,inactive: 0,inactive: 0,inactive: 0,inactive: 0,inactive: 0,inactive: 0
O=[N+]([O-])c1ccc(-c2nc(-c3ccc(F)cc3)c(-c3ccncc3)[nH]2)cc1 (10 µM),inactive: 0,inactive: 0,inactive: 0,inactive: 0,inactive: 0,inactive: 0,inactive: 0,active: 1,inactive: 0,inactive: 0
O=C(O)/C=C(\CCc1ccc(Cl)cc1)c1ccccc1 (10 µM),inactive: 0,inactive: 0,inactive: 0,inactive: 0,inactive: 0,inactive: 0,inactive: 0,inactive: 0,inactive: 0,inactive: 0
Cc1cc(N2CCOCC2)ccc1Nc1nc(NC2CCCCC2)c2[nH]cnc2n1 (10 µM),inactive: 0,inactive: 0,inactive: 0,inactive: 0,inactive: 0,inactive: 0,inactive: 0,inactive: 0,inactive: 0,inactive: 0
Cc1nn(CC(F)(F)F)cc1Nc1ncc(Br)c(NCc2ccc(S(N)(=O)=O)cc2)n1 (10 µM),inactive: 0,inactive: 0,inactive: 0,inactive: 0,inactive: 0,inactive: 0,inactive: 0,inactive: 0,inactive: 0,inactive: 0
C[C@@H]1CN(Cc2ccc(F)cc2)[C@@H](C)CN1C(=O)c1cc2c(C(=O)C(=O)N(C)C)cn(C)c2cc1Cl [Talmapimod] (10 µM),inactive: 0,inactive: 0,inactive: 0,inactive: 0,inactive: 0,inactive: 0,inactive: 0,inactive: 0,inactive: 0,inactive: 0
CCc1cc(Nc2nccc(-c3c(-c4ccc(OC)c(C(=O)Nc5c(F)cccc5F)c4)nc4ccccn34)n2)c(OC)cc1N1CCC(N2CCN(S(C)(=O)=O)CC2)CC1 (2.5 µM),inactive: 0,inactive: 0,inactive: 0,inactive: 0,inactive: 0,inactive: 0,inactive: 0,inactive: 0,inactive: 0,inactive: 0
COc1cc(N2CCC(O)CC2)ccc1Nc1nc(Nc2ccccc2S(=O)(=O)C(C)C)c2[nH]cnc2n1 (10 µM),inactive: 0,inactive: 0,inactive: 0,inactive: 0,inactive: 0,inactive: 0,inactive: 0,inactive: 0,inactive: 0,inactive: 0
N#Cc1cc(-c2ccnc(Nc3ccc(N4CCOCC4)cc3)n2)ccc1OC1CCOCC1 (10 µM),inactive: 0,inactive: 0,inactive: 0,inactive: 0,inactive: 0,inactive: 0,inactive: 0,inactive: 0,inactive: 0,inactive: 0
CNc1cc2c(Nc3cccc(Br)c3)ncnc2cn1 (10 µM),inactive: 0,inactive: 0,inactive: 0,inactive: 0,inactive: 0,inactive: 0,inactive: 0,inactive: 0,inactive: 0,inactive: 0
NC(=O)c1ccccc1Nc1ccnc(Nc2cccc(O)c2)n1 (10 µM),inactive: 0,inactive: 0,inactive: 0,inactive: 0,inactive: 0,inactive: 0,inactive: 0,inactive: 0,inactive: 0,inactive: 0
Cc1ncc(-c2cc(F)c(O)c(F)c2)cc1-c1cc(F)c(O)c(F)c1 (10 µM),inactive: 0,inactive: 0,inactive: 0,inactive: 0,inactive: 0,inactive: 0,inactive: 0,inactive: 0,inactive: 0,inactive: 0
CN(C)c1cc[n+](Cc2ccc(OCCOc3ccc(C[n+]4ccc(N(C)C)cc4)cc3)cc2)cc1 (10 µM),inactive: 0,inactive: 0,inactive: 0,inactive: 0,inactive: 0,inactive: 0,inactive: 0,inactive: 0,inactive: 0,inactive: 0
CNCc1ccccc1Sc1cccc2ccccc12 [IFN alpha-IFNAR-IN-1 (hydrochloride)] (10 µM),inactive: 0,inactive: 0,inactive: 0,inactive: 0,inactive: 0,inactive: 0,inactive: 0,inactive: 0,inactive: 0,inactive: 0
N=C(NC(=N)N1CCCC1)Nc1ccc(OC(F)(F)F)cc1 (10 µM),inactive: 0,inactive: 0,inactive: 0,inactive: 0,inactive: 0,inactive: 0,inactive: 0,inactive: 0,inactive: 0,inactive: 0
Nc1ccc(-c2cccc(C(=O)Nc3cnc4nc(N5CCOCC5)oc4c3)n2)cn1 (10 µM),inactive: 0,inactive: 0,inactive: 0,inactive: 0,inactive: 0,inactive: 0,inactive: 0,inactive: 0,inactive: 0,inactive: 0
N#C/C(=C/c1ccc(O)c(O)c1)C(=O)N1CCc2ccccc21 [Tyrphostin AG 528] (10 µM),inactive: 0,inactive: 0,inactive: 0,inactive: 0,inactive: 0,inactive: 0,inactive: 0,inactive: 0,inactive: 0,inactive: 0
Cc1cncc2cccc(S(=O)(=O)N3CCCNC[C@@H]3C)c12 [H-1152 (dihydrochloride)] (10 µM),inactive: 0,inactive: 0,inactive: 0,inactive: 0,inactive: 0,inactive: 0,inactive: 0,inactive: 0,inactive: 0,inactive: 0
O=C1C=CC2=C3c4cc(O)c(O)cc4CC3(O)COC2=C1O (stereo not given) [Hematein] (10 µM),inactive: 0,inactive: 0,inactive: 0,inactive: 0,inactive: 0,inactive: 0,inactive: 0,inactive: 0,inactive: 0,inactive: 0
O=C(O)c1c[nH]c2cc(Cl)c(-c3ccc(C4(O)CCC4)cc3)cc12 (10 µM),inactive: 0,inactive: 0,inactive: 0,inactive: 0,inactive: 0,inactive: 0,inactive: 0,inactive: 0,inactive: 0,inactive: 0
CC(C)c1cc2c(c(O)c1O)[C@@]13CCCC(C)(C)[C@@H]1C[C@@H]2OC3=O [Carnosol] (2.5 µM),inactive: 0,inactive: 0,inactive: 0,inactive: 0,inactive: 0,inactive: 0,inactive: 0,inactive: 0,inactive: 0,inactive: 0
CN1CCC(Nc2ccc(C(=O)Nc3cc(-c4ccc5c(c4)OCO5)[nH]n3)cc2)CC1 (10 µM),inactive: 0,inactive: 0,inactive: 0,inactive: 0,inactive: 0,inactive: 0,inactive: 0,inactive: 0,inactive: 0,inactive: 0
CN1CCN(c2ccc(-c3ccncc3-c3cc(F)c(O)c(F)c3)cc2)CC1 (10 µM),inactive: 0,inactive: 0,inactive: 0,inactive: 0,inactive: 0,inactive: 0,inactive: 0,inactive: 0,inactive: 0,inactive: 0

# Record cards, from the list above. Values in the order: kinase-Nluc reporter destabilization hit call (RET) | kinase-Nluc reporter destabilization hit call [1] | kinase-Nluc reporter destabilization hit call (RIOK1) | kinase-Nluc reporter destabilization hit call (RIPK1) | kinase-Nluc reporter destabilization hit call (RIPK2) | kinase-Nluc reporter destabilization hit call (ROR2) | kinase-Nluc reporter destabilization hit call (RPS6KA1) | kinase-Nluc reporter destabilization hit call (SPHK1) | kinase-Nluc reporter destabilization hit call (SRC) | kinase-Nluc reporter destabilization hit call (STK24)
# `CCc1cc(Nc2nccc(-c3c(-c4ccc(OC)c(C(=O)Nc5c(F)cccc5F)c4)nc4ccccn34)n2)c(OC)cc1N1CCC(N2CCN(S(C)(=O)=O)CC2)CC1` (2.5 µM) is listed with inactive: 0 | inactive: 0 | inactive: 0 | inactive: 0 | inactive: 0 | inactive: 0 | inactive: 0 | inactive: 0 | inactive: 0 | inactive: 0
# `O=C(O)/C=C(\CCc1ccc(Cl)cc1)c1ccccc1` (10 µM) is listed with inactive: 0 | inactive: 0 | inactive: 0 | inactive: 0 | inactive: 0 | inactive: 0 | inactive: 0 | inactive: 0 | inactive: 0 | inactive: 0
